Assay results published in PubChem BioAssay AID1347075 (National Center for Advancing Translational Sciences (NCATS), 2019).
Screen size: about 400,000 compounds; about 5,500 (1.4%) were called active. The shares of active, inactive and inconclusive entries below differ from those in the screen. Calls follow the shape of the dose curve; as a rule, active = well fitted cell-killing curve with a large enough effect; inconclusive = small, poorly fitted or top-dose-only effect, or effect the other way; inactive = flat fitted curve, though single readings scatter. Potencies of inconclusive entries are doubtful fits and often do not repeat.

test: qHTS assay for MDR1-selective chemotherapeutics: Primary screen using the parental adenocarcinoma cell KB-3-1; conditions: KB-3-1 viability, CellTiter-Glo ATP luminescence, 72 h; activity change, negative = cytotoxic: at 46.1 µM (top of the series); also: nearly all actives have a fitted effect of over 60% in size
In short: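 72 h, 37 °C compound treatment of KB-3-1 parental cells; CellTiter-Glo added, 10 min, luminescence read. Data corrected against DMSO-only plates and normalized before curve fitting.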
% is scaled to controls: 0 for no effect and ±100 for the full control effect; potency is read from the fitted curve at half-maximal effect.

SMILES | Potency | activity change, negative = cytotoxic
O=C(O)Cc1sc(NC2CCCCC2)nc1-c1ccc(Cl)cc1 | inconclusive: 8.2 µM [cytotoxic, partial curve, poor fit] | 
COc1ccc2ccccc2c1/C=N/NC(=S)Nc1cc(S(=O)(=O)N2CCOCC2)ccc1N1CCOCC1 | inconclusive: 29.1 µM [rising, single point] | 
O=C(COc1cccc(Cl)c1)Nc1nc(-c2ccc(S(=O)(=O)N3CCOCC3)cc2)cs1 |  | inactive: -6.17%
CC(C)(C)OC(=O)NCCCC[C@H](NC(=O)c1nc[nH]c1C(=O)NCc1ccc(CNC(=O)OC(C)(C)C)cc1)C(=O)OC(C)(C)C |  | inactive: 0%
O=C(CCc1nc2sc3c(c2c(=O)[nH]1)CCCC3)Nc1cccc(Cl)c1 | inconclusive: 29.1 µM [cytotoxic, single point] | 
CC(=O)c1ccc(-n2c(C)c(C(C)=O)c3cc(O)ccc32)cc1 |  | inactive: -6.02%
CCOc1ccc(C2CC(c3c(O)c4ccccc4oc3=O)=NN2c2ccccc2)cc1OC (stereo not drawn) | inconclusive: 14.6 µM [cytotoxic, single point] | 
Cc1ccc(-c2cc(=O)c3cc(C)ccc3[nH]2)cc1 | active: 9.2 µM | 
CCn1c(C)nc2cc(C(=O)NNS(=O)(=O)c3c(F)cc(F)c(Cl)c3F)ccc21 | inconclusive: 2.91 µM [cytotoxic, full curve] | 
Cc1ccccc1NC(=O)/C=C1\SC(=O)NC1=O |  | inactive: -23.3%
CCC(C)(C)C1CCC2(CC1)NC(=O)N(CC(=O)N(C)CC(=O)Nc1ccccc1C(F)(F)F)C2=O (stereo not drawn) | inconclusive: 20.6 µM [cytotoxic, single point] | 
COC(=O)[C@]12CCCCC=C1N(Cc1cccc3ccccc13)C(=O)[C@H](CC(=O)NCc1cccs1)C2 | inconclusive: 20.6 µM [cytotoxic, single point] | 
CCc1ccc2occ(CC(=O)Nc3sc4c(c3C(=O)OC)CCC4)c2c1 | inconclusive: 29.1 µM [cytotoxic, single point] | 
COc1ccc(CNC(=O)[C@@H]2CC=C[C@@H]3CCN(Cc4ccc(Cl)c(Cl)c4)C(=O)[C@@H]32)cc1 | inconclusive: 23.1 µM [cytotoxic, single point] | 
CC(=O)N1CCC(C(=O)Nc2nnc(C(C)C)s2)CC1 |  | inconclusive: 26%
CCN1CCN(C(=O)c2ccc(N3CC4CC(C3)c3cccc(=O)n3C4)c(NC(=O)c3cc(OC)cc(OC)c3)c2)CC1 (stereo not drawn) |  | inactive: -2.69%
COc1cccc(CNCCSc2nnnn2C)c1OCc1ccc(Cl)cc1 | inconclusive: 23.1 µM [cytotoxic, single point] | 
Cc1cn(C2CC(O)C(CO)O2)c(=O)n(CCCc2ccccc2)c1=O (stereo not drawn) | inconclusive: 0.82 µM [cytotoxic, full curve] | 

2 successive compounds already listed, quoted:
SMILES | Potency | activity change, negative = cytotoxic
CCc1ccc2occ(CC(=O)Nc3sc4c(c3C(=O)OC)CCC4)c2c1 | inconclusive: 29.1 µM [cytotoxic, single point] | 
COc1ccc(CNC(=O)[C@@H]2CC=C[C@@H]3CCN(Cc4ccc(Cl)c(Cl)c4)C(=O)[C@@H]32)cc1 | inconclusive: 23.1 µM [cytotoxic, single point] | 
